Results as given in PMC8708704, “Discovery of New Chemical Tools against Leishmania amazonensis via the MMV Pathogen Box” (Pharmaceuticals, 2021).

System: Leishmania amazonensis promastigotes
Assay: Leishmanicidal activity against promastigotes (alamarBlue assay; screening at 10 µM and IC50)
Type: cell-based
Details: first screening, 72 h
Protocol: For the experiments, promastigotes of Leishmania amazonensis strain (MHOM/BR/77/LTB0016) were used; they were maintained in RPMI 1640 medium (Gibco, Massachusetts, USA) at 26 °C. […] The concentration of DMSO never exceeded 0.1% (v/v), avoiding the effect on the parasite’s proliferation or morphology. Subsequently, the plates were analyzed on an EnSpire multimode plate reader (PerkinElmer, MA, USA) to measure their fluorescence after 72 h. […] To this end, serial dilutions were performed in 96 well plates, and incubated with the parasites for 72 h after adding alamarBlue®. Next, the plates were analyzed on the EnSpire plate reader and the IC50 values were calculated by using SigmaPlot 14.0 (Systat Software Inc., Chicago, IL, USA). Each concentration was tested in duplicate and in three independent experiments for all the compounds.

In the case of `CN1CCCC1CCO[C@](C)(c1ccccc1)c1ccc(Cl)cc1` (stereo partly shown) [MMV637229], the “% of inhibition at 10 µM (against L. amazonensis promastigotes)” value is reported as 61%.
